These are yes or no findings as the source states them, for the method shown. In cells and extracts the contact can be indirect. Here binding means that the protein was enriched with, or labelled near, the bait; the list need not be complete. Tags and fused reporters may be left off the sequences shown.
T1: TAP-AtSYP32 (9 x myc-AtSYP32) fusion protein (Arabidopsis thaliana) (UniProt Q9LK09)
T1 sequence: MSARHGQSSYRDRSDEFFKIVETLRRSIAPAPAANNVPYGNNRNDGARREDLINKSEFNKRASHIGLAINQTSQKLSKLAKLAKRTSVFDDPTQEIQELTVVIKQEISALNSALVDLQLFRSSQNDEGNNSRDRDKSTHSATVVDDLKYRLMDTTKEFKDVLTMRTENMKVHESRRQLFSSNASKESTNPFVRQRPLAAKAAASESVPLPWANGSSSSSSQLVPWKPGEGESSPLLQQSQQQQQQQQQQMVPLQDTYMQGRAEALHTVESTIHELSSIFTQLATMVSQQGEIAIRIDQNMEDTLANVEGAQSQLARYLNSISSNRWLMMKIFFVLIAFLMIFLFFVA

B1: Dynamin related protein2A (DRP2A) (endogenous) (protein, UniProt Q9SE83 1-914)
chain: MEAIDELSQLSDSMKQAASLLADEDPDETSSSKRPATFLNVVALGNVGAGKSAVLNSLIGHPVLPTGENGATRAPIIIELSRESSLSSKAIILQIDNKSQQVSASALRHSLQDRLSKGASGKNRDEINLKLRTSTAPPLKLVDLPGLDQRIVDESMIAEYAQHNDAILLVIVPASQASEISSSRALKIAKEYDPESTRTIGIIGKIDQAAENSKALAAVQALLSNQGPPKTTDIPWVAVIGQSVSIASAQSGSGENSLETAWRAESESLKSILTGAPQSKLGRIALVDTLASQIRSRMKLRLPSVLSGLQGKSQIVQDELARLGEQLVNSAEGTRAIALELCREFEDKFLLHLAGGEGSGWKVVASFEGNFPNRIKQLPLDRHFDLNNVKRVVLEADGYQPYLISPEKGLRSLIKIVLELAKDPARLCVDEVHRVLVDIVSASANATPGLGRYPPFKREVVAIASAALDGFKNEAKKMVVALVDMERAFVPPQHFIRLVQRRMERQRREEELKGRSSKKGQDAEQSLLSRATSPQPDGPTAGGSLKSMKDKPSPQDKETPEVSGLKTAGPEGEITAGYLMKKSAKTNGWSRRWFVLNEKTGKLGYTKKQEERNFRGTITLEECTIEEIPEDEVEKSKSSKDKKANGPDSKGPGLVFKITCKVPYKTVLKAHNALVLKAESVVDKNEWINKLQKVIQARGGQVGSVSMRQSLSEGSLDKMVRKPIDPEEELRWMSQEVRGYVEAVLNSLAANVPKAVVLCQVEKAKEDMLNQLYSSISAIGNERIESLIQEDQNVKRRRERYQKQSSLLSKLTRQLSIHDNRAAAASSYSDNSGTESSPRASGGSSGDDWMNAFNSAANGPSDSLSKYGSGGHSRRYSDPAQNGDAASPGSGSNRRTTPNRLPPAPPPTGSAYRY
B2: DRP2B (endogenous) (protein, UniProt Q9LQ55 1-920)
chain: MEAIDELSQLSDSMRQAASLLADEDPDETSSSRRPATSLNVVALGNVGAGKSAVLNSLIGHPVLPTGENGATRAPIIIDLSREESLSSKAIILQIDNKNQQVSASALRHSLQDRLSKGASGRGRDEIYLKLRTSTAPPLKLIDLPGLDQRIVDDSMIGEHAQHNDAILLVVVPASQASEISSSRALKIAKEYDPESTRTVGIISKIDQAAENPKSLAAVQALLSNQGPPKTTDIPWVALIGQSVSIASAQSGGSENSLETAWRAESESLKSILTGAPQSKLGRIALVDTLASQIRSRMKLRLPNILTGLQGKSQIVQDELARLGEQLVSSAEGTRAIALELCREFEDKFLLHLAGGEGSGWKVVASFEGNFPNRIKKLPLDRHFDLNNVKRIVLEADGYQPYLISPEKGLRSLIKTVLELAKDPARLCVDEVHRVLVDIVSASANATPGLGRYPPFKREVVAIASAALDGFKNEAKKMVVALVDMERAFVPPQHFIRLVQRRMERQRREEELKGRSSKKGQDAEQSLLNRATSPQPDGPSSTGGSLKSLRDKLMPQDKDKDKEKETPEVSGLKTAGPEGEITAGYLMKKSAKTNGWSRRWFVLNEKTGKLGYTKKQEERNFRGTVTLEECSIEEISDDEGEKSKSSKDKKSNGPDSKGPGLVFKITCRVPYKTVLKAHNALVLKAESMVDKNEWINKLQKVIQARGGQVGSASMRQSLSEGSLDKMVRKPVDPEEELRWMSQEVRGYVEAVLNSLAANVPKAVVLCQVEKSKEDMLNQLYSSISAIGNERIESLIQEDQNVKRRRDRYQKQSSLLSKLTRQLSIHDNRAAAASSWSDNSGTESSPRTNGGSSGEDWMNAFNAAASGPDSLKRYGSGGHSRRYSDPAQNGEDSSGSGGSSRRTTPNRLPPAPPQSGSSYRY
B3: RABA4D (endogenous) (protein, UniProt Q9LH50 1-222)
chain: MSNLYGDYNQKIDYVFKVVLIGDSAVGKTQLLARFARNEFSVDSKATIGVEFQTKTLVIDNKTVKAQIWDTAGQERYRAVTSAYYRGAVGAMLVYDMTKRQSFDHMAKWLEELRGHADKNIVIMLIGNKCDLGSLRAVPTEDAQEFAQRENLFFMETSALEATNVETAFLTILTEIYRIISKKSLTADDDDADGNSSLLKGTRIIIPSEQESGKRGGCCGKS

target: T1, TAP-AtSYP32 (9 x myc-AtSYP32) fusion protein (Arabidopsis thaliana); test: affinity purification with mass spectrometry

binding, binds:
B1
B2
B3
